Results reported in PubChem BioAssay AID192 (DTP/NCI, 2004).
The list is a part of this screen's results and no random one: it gathers tests that were run many times, whatever their T/C, doses with no T/C, and many T/C values between a quarter and a half above the control. Further doses and runs are listed elsewhere. T/C is the treated group as % of the vehicle group. Some entries give survivors of the animals treated and no T/C: the source holds a T/C of zero for them, seemingly a mark for toxic or unscored doses. Some survivor counts are full or nearly so, which does not show that the dose was tolerated: the source hardly ever lists a survival T/C far under the control, and the zero likely stands for such cases as well. Survivors were counted at the toxicity check, usually on the fifth day, unless a day is given; later deaths do not show. Schedule codes are those of the source, read here as Q, the interval in days (D) or hours (H), X, the number of doses. Some entries hold several experiments; their values stand side by side, smallest first. For survival time, this PubChem deposit counts one and a half times the control or more as active, and values a quarter to a half above the control carry no call in these data; other NCI protocols may use other cut-offs. Some T/C values are followed by the survivors on the day toxicity was checked, most often the fifth; where none is given, no animal had died by that day. Brackets with × give the number of equal values in this list. Peptide text beside a SMILES is read from it. * marks the point of attachment. Cbz = O=C(OCc1ccccc1)*

Test system: BDF1 mice, B16 melanoma ip, median survival T/C
Experiment: NCI In Vivo Anticancer Drug Screen. Data for tumor model B16 Melanoma (intraperitoneal) in B6D2F1 (BDF1) mice
Settings: T/C endpoint: median survival time, higher T/C = longer survival
In short: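 Compounds were tested in mice carrying transplantable tumors. Survival or tumor size was recorded, and each value is the treated-group measurement (T) divided by that of the vehicle-treated control group (C).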

[1] = dose: 100.0 mg/kg/injection, schedule: Q01DX009 (ip), vehicle: saline with Tween-80
[2] = dose: 400.0 mg/kg/injection, schedule: Q01DX009 (ip), vehicle: Klucel (hydroxypropylcellulose) (HPC)
[3] = dose: 80.0 micrograms/kg/injection, schedule: Q01DX009 (ip), vehicle: saline
[4] = dose: 160.0 micrograms/kg/injection, schedule: Q01DX009 (ip), vehicle: saline
[5] = dose: 200.0 mg/kg/injection, schedule: Q01DX009 (ip), vehicle: saline with Tween-80

C[N+](C)(C)CC(=O)[O-]
survivor count (dose: 200.0 mg/kg/injection, schedule: Q01DX009 (ip), vehicle: saline): 10 of 10

CC(C)CC(NC(=O)OCc1ccccc1)C(=O)O (stereo not drawn)
T/C [1]: 128 % of control [9 of 10 alive]
survivor count (dose: 200.0 mg/kg/injection, schedule: Q04DX003 (ip), vehicle: saline with Tween-80): 10 of 10
survivor count (dose: 400.0 mg/kg/injection, schedule: Q04DX003 (ip), vehicle: saline with Tween-80): 10 of 10

COc1ccccc1NC(=O)Nc1cccc(C)c1C
survivor count [2]: 10 of 10

O=C(O)C1(C(=O)O)CCCCC1.[NH2-].[NH2-].[Pt+2]
T/C (dose: 3.12 mg/kg/injection, schedule: Q01DX009 (ip), vehicle: saline): 128 % of control

O=C1NC(C2CCC3CN32)C(=O)NC1C1CCC2CN21 (stereo not drawn)
T/C (dose: 0.8 mg/kg/injection, schedule: Q01DX009 (ip), vehicle: saline): 126 % of control

CN(C)CCCNc1c2ccccc2nc2cccc([N+](=O)[O-])c12
T/C (dose: 10.0 micrograms/kg/injection, schedule: Q01DX009 (ip), vehicle: saline): 95, 96, 100 [9 of 10 alive] (2×), 103, 112, 113, 119 % of control
T/C (dose: 20.0 micrograms/kg/injection, schedule: Q01DX009 (ip), vehicle: saline): 90, 94 [9 of 10 alive], 95, 96, 101, 108, 111, 137 % of control
T/C (dose: 40.0 micrograms/kg/injection, schedule: Q01DX009 (ip), vehicle: saline): 90 [9 of 10 alive], 98, 99, 101, 101 [9 of 10 alive], 109, 110, 124 % of control
T/C [3]: 90, 93, 96 (2×), 97, 100, 125 % of control
survivor count [3]: 9 of 10
T/C [4]: 109 % of control
survivor count [4]: 8 of 10, 9 of 10, 10 of 10
survivor count (dose: 250.0 micrograms/kg/injection, schedule: Q01DX009 (ip), vehicle: saline): 10 of 10
survivor count (dose: 500.0 micrograms/kg/injection, schedule: Q01DX009 (ip), vehicle: saline): 10 of 10
survivor count (dose: 1000.0 micrograms/kg/injection, schedule: Q01DX009 (ip), vehicle: saline): 10 of 10

O=C1NC(c2cccc(OCc3ccccc3)c2)Nc2ccccc21 (stereo not drawn)
survivor count [2]: 10 of 10

CCCCCCC(O)CCCC (stereo not drawn)
survivor count (dose: 400.0 mg/kg/injection, schedule: Q01DX009 (ip), vehicle: other): 8 of 10

ClC(Cl)=C(Cl)Cl
survivor count [5]: 10 of 10
survivor count (dose: 800.0 mg/kg/injection, schedule: Q01DX009 (ip), vehicle: Klucel (hydroxypropylcellulose) (HPC)): 1 of 9

Cc1ccc(NC(=O)Nc2ccccc2Cl)cc1
survivor count (dose: 200.0 mg/kg/injection, schedule: Q01DX009 (ip), vehicle: gum acacia): 10 of 10
survivor count (dose: 400.0 mg/kg/injection, schedule: Q01DX009 (ip), vehicle: gum acacia): 10 of 10

CC(C)(C)OC(=O)N1CCCC1C(=O)O (stereo not drawn)
survivor count (dose: 100.0 mg/kg/injection, schedule: Q01DX009 (ip), vehicle: Klucel (hydroxypropylcellulose) (HPC)): 10 of 10
survivor count (dose: 200.0 mg/kg/injection, schedule: Q01DX009 (ip), vehicle: Klucel (hydroxypropylcellulose) (HPC)): 10 of 10
survivor count [2]: 2 of 10

O=C(O)c1cccc(S(=O)(=O)N(CCO)CCO)c1
survivor count [1]: 10 of 10
survivor count [5]: 10 of 10

O=C(NC(Cc1ccccc1)C(=O)NC(CO)C(=O)O)OCc1ccccc1 (stereo not drawn) (Cbz-Phe-Ser-OH; configuration not given here)
survivor count [5]: 10 of 10
survivor count (dose: 400.0 mg/kg/injection, schedule: Q01DX009 (ip), vehicle: saline with Tween-80): 9 of 10

CNC(=S)N/N=C(\C=N\NC(=S)NC)c1ccc(C)cc1
survivor count [2]: 10 of 10

COC(=O)c1cccc(C)c1O
survivor count [5]: 8 of 10

O=C(N/N=C/c1ccc(N(CCCl)CCCl)cc1)c1ccc(C(=O)N/N=C/c2ccc(N(CCCl)CCCl)cc2)cc1
survivor count (dose: 25.0 mg/kg/injection, schedule: Q04DX003 (ip), vehicle: Klucel (hydroxypropylcellulose) (HPC)): 9 of 10
survivor count (dose: 100.0 mg/kg/injection, schedule: Q04DX003 (ip), vehicle: Klucel (hydroxypropylcellulose) (HPC)): 5 of 10

CCCCCCCCCOCCOCCOCCN
survivor count (dose: 50.0 mg/kg/injection, schedule: Q04DX003 (ip), vehicle: Klucel (hydroxypropylcellulose) (HPC)): 10 of 10

CC(=O)n1cc(F)c(=O)[nH]c1=O
survivor count (dose: 40.0 mg/kg/injection, schedule: Q01DX009 (ip), vehicle: Klucel (hydroxypropylcellulose) (HPC)): 10 of 10
survivor count (dose: 60.0 mg/kg/injection, schedule: Q01DX009 (ip), vehicle: Klucel (hydroxypropylcellulose) (HPC)): 10 of 10

COc1ccc(NC(=O)Oc2ccc(Cl)c(C)c2)cc1
T/C [1]: 125 % of control
